Source: ChEMBL document CHEMBL3988442, “University of Dundee, Small-Polar-MMV Screening Library” (2021).

Protein sequences, listed by entry. Tags and fused reporters are not part of them.
UniProt E9BF75, entry or part of it: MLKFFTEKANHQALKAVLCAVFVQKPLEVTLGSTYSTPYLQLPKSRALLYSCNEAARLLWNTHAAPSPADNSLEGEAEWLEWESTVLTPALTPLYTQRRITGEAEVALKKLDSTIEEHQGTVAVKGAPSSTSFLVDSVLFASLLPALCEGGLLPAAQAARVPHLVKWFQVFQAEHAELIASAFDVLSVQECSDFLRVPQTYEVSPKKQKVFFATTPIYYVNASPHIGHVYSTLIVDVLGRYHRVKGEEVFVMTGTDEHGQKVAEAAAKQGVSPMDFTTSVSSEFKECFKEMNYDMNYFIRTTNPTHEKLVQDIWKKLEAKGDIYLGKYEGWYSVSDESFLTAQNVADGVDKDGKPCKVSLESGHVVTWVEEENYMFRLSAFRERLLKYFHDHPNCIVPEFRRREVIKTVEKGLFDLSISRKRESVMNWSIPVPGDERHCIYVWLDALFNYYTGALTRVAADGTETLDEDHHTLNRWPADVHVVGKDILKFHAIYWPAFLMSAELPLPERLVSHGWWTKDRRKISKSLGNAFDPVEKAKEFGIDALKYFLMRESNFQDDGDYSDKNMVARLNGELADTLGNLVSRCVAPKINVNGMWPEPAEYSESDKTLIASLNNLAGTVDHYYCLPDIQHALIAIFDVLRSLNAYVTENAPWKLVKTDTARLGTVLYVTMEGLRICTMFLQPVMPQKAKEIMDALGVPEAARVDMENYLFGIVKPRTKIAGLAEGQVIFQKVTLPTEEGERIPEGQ

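Primary screen of methionyl-tRNA synthetase; the read-out is not stated. Target: Methionyl-tRNA synthetase (putative), Leishmania donovani (UniProt E9BF75). The test concentration is not given. The values are filed as inhibition. Size under these conditions: about 68,000 compounds, about 24 of them at 50% or above in at least one test.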

All values are in %.
The record does not define 0% and 100%; most values in the screen are far below 50% and negative numbers occur (in some assays of this library far below -100).
Compounds were drawn at random from those tested, without regard to their results.

Cc1nsc(C(=O)NCCCc2ccccc2)n1 read 0.2825%.
Cc1cc2[nH]c(CN3CCOC(C(F)(F)F)C3)cc(=O)n2n1 (stereo not given) read 4.811%.
Cc1nc2cc(C3CCN(Cc4ccccc4F)C3)nn2c(O)c1C (stereo not given) read 7.292%.
Cn1ncc2c(NCCOCc3ccccc3)nc(C3CCCC3)nc21 read 15.6%.
Fc1cc(CCNc2ccc3nccn3n2)c2c(c1)COCO2 read 16.53%.
Cc1noc([C@@]23CCO[C@@H]2CCN(CC2CCOCC2)C3)n1 read 12.97%.
CN1[C@H]2CC[C@@H]1CN(C(=O)c1nnc3n1CCCCC3)CC2 read 17.18%.
CN(C)C(=O)N[C@H]1CN(C2CCOCC2)[C@@H]2CCCO[C@H]12 read 0.346%.
Cc1cc(=O)n2nc(Oc3cccc(C(N)=O)c3)sc2n1 read 9.907%.
COc1cc2c(cc1CN1CCCCC1CN1CCOCC1)CCC2 (stereo not given) read 13.19%.
CCC(C)(CNC(=O)Nc1nccs1)N1CCOCC1 (stereo not given) read 9.712%.
Cc1cc(NC(=O)C2CCN(c3nnc(C)c(C)c3C#N)CC2)no1 read 7.542%.
CC1COCCN1Cc1nc(-c2ccsc2)no1 (stereo not given) read 25%.
CC(CNC(=O)Nc1ccc(C#N)cc1)N1CCc2ccccc21 (stereo not given) read 12.24%.
c1ccc(-c2nc(CN3CCOC(Cn4cccn4)C3)cs2)cc1 (stereo not given) read 17.06%.
CCNc1ccnc(NCc2cn3nc(C)sc3n2)n1 read 9.524%.
CCC(C)[C@H](NC(=O)c1cc(F)ccc1-n1cnnn1)C(=O)OC (stereo not given in full) read 0.2584%.
O=S(=O)(CCNCCn1cccn1)c1ccccc1 read 6.805%.
Cc1nccn1-c1cc(CNC(=O)CCC2CCCO2)ccn1 (stereo not given) read 5.512%.
CNC(=O)c1ccc(NC(=O)NC(C)c2cc(C)oc2C)cc1 (stereo not given) read 19.35%.
Cc1ccc(NC2CCN(C(=O)c3ccc(F)c(C)c3)CC2)nn1 read 3.977%.
Cc1ccc(C(=O)N2CCCc3c(c(=O)n(C)n3C)C2)o1 read -4.255%.
COc1ccc(Br)cc1CC(=O)N1CCCC1 read 9.409%.
Cc1ccc(-n2cc(S(=O)(=O)Nc3cccc(C(=O)O)c3C)cn2)cc1 read 11.11%.
CC(C)CC1CC(=O)Nc2c1cnn2Cc1ccco1 (stereo not given) read 16.91%.
Nc1nccc(N2CCCC(CO)(CCOc3ccccc3)C2)n1 (stereo not given) read 8.661%.
COCCNc1ncc(-c2cccc(OC)c2)c(-c2nccn2C)n1 read 17.46%.
O=C(Nc1ccc(-c2nnc[nH]2)cc1)C1CCN1Cc1ccccc1 (stereo not given) read 2.957%.
Cc1n[nH]c(C)c1CCc1ccc(S(C)(=O)=O)cc1 read 13.94%.
CN1CCC(c2cncc(C(=O)NCc3ccc(F)cc3)n2)CC1 read 12.03%.
CCOc1ccccc1N(C)C(=O)c1cscn1 read 11.72%.
Cc1ccc(N2CCCC(N3CCC(CO)CC3)C2=O)cc1 (stereo not given) read 7.542%.
COc1ncccc1CN1C[C@@H]2OCCN(CCN(C)C)[C@@H]2C1 read 8.651%.
CNS(=O)(=O)CCCN1CCN(C(C#N)c2ccccc2)CC1 (stereo not given) read 11.26%.
O=C(CN1CCc2c(ncn2C2CC2)C1)NC1CCOCC1 read 16.39%.
CC1(C)COCCN1C(=O)CCc1nc(-c2ccccn2)no1 read 16.48%.
COCCN(C)C(=O)Nc1ccc(C(=O)NCCC(=O)OC)cc1 read 8.193%.
Cc1ccc(N2CC[C@H]3OCC[C@@]3(C(=O)N3CCCO3)C2)nn1 read 9.051%.
COc1ccc(Oc2ncccc2C(F)(F)F)cc1CN1CCCC1 read 12.06%.
CCN1CCC[C@@H]1CNC(=O)c1cc(COc2ccccc2)[nH]n1 read 12.93%.
Cc1cc(C(=O)N2C[C@H]3CC[C@@H]2CN(C)C3)ccc1Cl read -0.5988%.
N#CCCN(CCN1CCOCC1)Cc1ccc(F)c(Br)c1 read 19.35%.
Cc1nccn1[C@@H]1CC[C@@H](NC(=O)CCCn2cncn2)[C@H]1O read 9.006%.
CN(Cc1cccnc1)C[C@@H]1OC[C@H]2CN(C(=O)C3CC3)CC[C@H]21 read 5.155%.
CCc1ccc(CN(C(=O)CCn2cc(S(N)(=O)=O)cn2)C2CC2)cc1 read 13.7%.
CC(C)Cc1noc(CN2CCOCC2C)n1 (stereo not given) read 14.11%.
O=C(c1cccnc1N1CCOCC1)N1CCCC(n2ccnc2)C1 (stereo not given) read 17.35%.
Cc1c(CN(C)c2cc(C3CCCNC3)ncn2)[nH]c2ccccc12 (stereo not given) read 9.48%.
COCC(=O)N1CCC2(CCCN(Cc3cc(OC)ccc3F)C2)C1 (stereo not given) read 6.989%.
O=C(NCc1cccnc1)C1=NOC2(CCN(S(=O)(=O)C3CC3)C2)C1 (stereo not given) read 12.97%.
CCOCC(=O)N1C[C@@H](O)[C@H](NC(C)=O)C1 read 18.35%.
CSc1cccc(CN(C)C(=O)c2cccc(C3CCCNC3)c2)c1 (stereo not given) read 14.83%.
Cc1nnc2n1CCN(Cc1csc(Cc3ccccc3)n1)C2 read 7.302%.
CCc1nc(CN(C)C2CCN(Cc3nc(C4CC4)no3)C2)no1 (stereo not given) read -14.64%.
CN(C)c1ccc(CC(=O)N2C[C@H](C3CC3)[C@@H](N)C2)cc1 read 14.03%.
CC1CCN(CCCNS(=O)(=O)c2cc(F)cc(F)c2)CC1 read 26.09%.
O=C(CCn1cc(Cl)cn1)N1CCN(CC2CC2)[C@@H]2CS(=O)(=O)C[C@@H]21 read 1.535%.
O=C(c1ccno1)N1CCO[C@]2(CCC[C@@H]2COCc2ccncc2)C1 read 13.33%.
COc1ccc(CC2(CO)CCN(c3cc(C(N)=O)ccn3)CC2)cc1 read 10.3%.
CNCC(=O)N1CCCCC1c1nccc(C)n1 (stereo not given) read 5.825%.

Repeated from the top, 8 entries:

SMILES,Inhibition
Cc1nsc(C(=O)NCCCc2ccccc2)n1,0.2825%
Cc1cc2[nH]c(CN3CCOC(C(F)(F)F)C3)cc(=O)n2n1 (stereo not given),4.811%
Cc1nc2cc(C3CCN(Cc4ccccc4F)C3)nn2c(O)c1C (stereo not given),7.292%
Cn1ncc2c(NCCOCc3ccccc3)nc(C3CCCC3)nc21,15.6%
Fc1cc(CCNc2ccc3nccn3n2)c2c(c1)COCO2,16.53%
Cc1noc([C@@]23CCO[C@@H]2CCN(CC2CCOCC2)C3)n1,12.97%
CN1[C@H]2CC[C@@H]1CN(C(=O)c1nnc3n1CCCCC3)CC2,17.18%
CN(C)C(=O)N[C@H]1CN(C2CCOCC2)[C@@H]2CCCO[C@H]12,0.346%